Data on 24 molecules can be found in PubChem BioAssay AID200 (DTP/NCI, 2004).

The list does not hold the whole screen: it is rich in T/C values a quarter to a half above the control, in often repeated tests (any T/C) and in doses without a T/C. Other doses and runs of a compound stand elsewhere. T/C: endpoint of the treated group in % of that of the vehicle group. Some entries give survivors of the animals treated and no T/C: the source files T/C as zero there, which appears to mark a toxic dose or a test without result, not a measured value. Some doses without a T/C left all or most animals alive at the check, yet need not have been tolerated: the source hardly ever lists a survival T/C far under the control, and the zero likely stands for such cases as well. Counts of survivors are from the toxicity check (mostly the fifth day) where no day follows; animals may have died later. Schedules are NCI's codes, taken here to give the interval after Q, in days (D) or hours (H), and the number of doses after X. Some doses were run more than once; the values are given in rising order. For survival time, the PubChem record calls one and a half times the control and up active, and a quarter to a half above the control has no call in these data; cut-offs in other NCI protocols can differ. Some T/C values carry the count of animals alive at the toxicity check (mostly the fifth day); without a count, all were alive then.

The test system of the assay is B6C3F1 mice, B16 melanoma ip, median survival T/C. Kind of assay: NCI In Vivo Anticancer Drug Screen. Data for tumor model B16 Melanoma (intraperitoneal) in B6C3F1 mice. To be noted: T/C endpoint: median survival time, schedule: Q01DX009 (ip), higher T/C = longer survival. Put shortly: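 Values are T/C ratios: the measurement in treated animals divided by that in vehicle-treated controls, using survival or tumor size in mice carrying transplantable tumors.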

Where [1] appears, read: dose: 25.0 mg/kg/injection, vehicle: Klucel (hydroxypropylcellulose) (HPC).
[2] abbreviates: dose: 12.5 mg/kg/injection, vehicle: saline.
The mark [3] stands for this setting: dose: 400.0 mg/kg/injection, vehicle: saline with Tween-80.
[4] abbreviates: dose: 400.0 mg/kg/injection, vehicle: saline.
The mark [5] stands for this setting: dose: 12.5 mg/kg/injection, vehicle: saline with Tween-80.
Setting [6] is: dose: 25.0 mg/kg/injection, vehicle: saline with Tween-80.
[7] abbreviates: dose: 50.0 mg/kg/injection, vehicle: saline with Tween-80.
Where [8] appears, read: dose: 50.0 mg/kg/injection, vehicle: saline.
[9] abbreviates: dose: 100.0 mg/kg/injection, vehicle: saline with Tween-80.
Setting [10] is: dose: 100.0 mg/kg/injection, vehicle: saline.
The mark [11] stands for this setting: dose: 200.0 mg/kg/injection, vehicle: saline with Tween-80.
Where [12] appears, read: dose: 200.0 mg/kg/injection, vehicle: saline.
[13] abbreviates: dose: 400.0 mg/kg/injection, vehicle: Klucel (hydroxypropylcellulose) (HPC).

Regarding `COc1cc2cc(c1Cl)N1CCC(C)(O)C(=O)NC(C)C(=O)OC(CC1=O)C1(C)OC1C(C)C1CC(O)(NC(=O)O1)C(OC)/C=C\C=C(\C)C2OC` (stereo unspecified), the T/C (dose: 4.0 micrograms/kg/injection, vehicle: distilled water + alcohol) is 130 % of control.
For the molecule `CC(C)(C)OC(=O)NC(CCCCNC(=O)OCc1ccccc1)C(=O)O` (stereo unspecified), where the note is “dose: 100.0 mg/kg/injection, vehicle: distilled water + Tween-80 + alcohol”, the survivor count was 10 of 10.
Take `C[C@@H]1C[C@H]2[C@@H]3CCC4=CC(=O)C=C[C@]4(C)[C@@]3(F)[C@@H](O)C[C@]2(C)[C@@]1(O)C(=O)CO`: the survivor count is, setting by setting: under setting [1], 10 of 10; (dose: 50.0 mg/kg/injection, vehicle: Klucel (hydroxypropylcellulose) (HPC)) 10 of 10; (dose: 100.0 mg/kg/injection, vehicle: Klucel (hydroxypropylcellulose) (HPC)) 10 of 10.
With `CCC(C(=O)O)C(=O)O.[NH2-].[NH2-].[Pt+2]`, under setting [2], the T/C was 146 % of control.
In the case of `COC1=C(OC)C(=O)C(C/C=C(\C)CC/C=C(\C)CC/C=C(\C)CC/C=C(\C)CC/C=C(\C)CC/C=C(\C)CC/C=C(\C)CC/C=C(\C)CC/C=C(\C)CCC=C(C)C)=C(C)C1=O`, the survivor count under setting [3] was 10 of 10.
With `CCCN(CCC)C(C)C(O)c1cc2c(c3ccccc13)CCCC2` (stereo unspecified), the T/C (dose: 0.19 mg/kg/injection, vehicle: Klucel (hydroxypropylcellulose) (HPC)) is 127 % of control. The survivor count is, setting by setting: (dose: 0.78 mg/kg/injection, vehicle: Klucel (hydroxypropylcellulose) (HPC)) 9 of 10; (dose: 12.5 mg/kg/injection, vehicle: Klucel (hydroxypropylcellulose) (HPC)) 10 of 10; under setting [1], 10 of 10.
Regarding `CC(=O)OCC1OC([S-])C(OC(C)=O)C(OC(C)=O)C1OC(C)=O.CC[PH+](CC)CC.CC[PH+](CC)CC.[Au].[Au]` (stereo unspecified), for the setting “dose: 1.25 mg/kg/injection, vehicle: Klucel (hydroxypropylcellulose) (HPC)”, the T/C was 140 % of control. The survivor count by setting is: (dose: 10.0 mg/kg/injection, vehicle: Klucel (hydroxypropylcellulose) (HPC)) 5 of 10; (dose: 20.0 mg/kg/injection, vehicle: Klucel (hydroxypropylcellulose) (HPC)) 2 of 10.
Take `CCCCCCCCCCCCCCCCCC(=O)OCC(=O)OCC(=O)[C@]1(O)Cc2c(O)c3c(c(O)c2[C@@H](OC2CC(N)C(O)C(C)O2)C1)C(=O)c1c(OC)cccc1C3=O` (stereo partly specified): the T/C (dose: 0.37 mg/kg/injection, vehicle: saline) is 142 % of control. In addition, the survivor count (dose: 12.0 mg/kg/injection, vehicle: saline) is reported as 10 of 10.
Take `C=CCOCC1CO1` (stereo unspecified): under setting [4], the survivor count was 0 of 10 and 4 of 10.
On to `CC1=C(C)C(=O)O[C@@H]([C@](C)(O)[C@]2(O)CC[C@@]3(O)[C@@H]4C[C@H]5O[C@]56CC=CC(=O)[C@]6(C)[C@H]4CC[C@]23C)C1`, for which the T/C (dose: 6.25 mg/kg/injection, vehicle: saline) was 139 % of control; the T/C under setting [5] is 131 % of control; the T/C under setting [2] was 127 % of control; the T/C under setting [6] is 140 % of control; the T/C (dose: 25.0 mg/kg/injection, vehicle: saline) is 132 % of control; the T/C under setting [8] was 128 and 130 % of control. The survivor count runs as follows: under setting [6], 10 of 10; under setting [7], 5 of 10; under setting [9], 1 of 10; under setting [10], 10 of 10; under setting [11], 1 of 10; under setting [12], 7 of 10. Further, the survivor count under setting [3] was 0 of 10.
On to `NC(C(=O)O)c1ccc(CBr)cc1` (stereo unspecified), for which the T/C (dose: 12.0 mg/kg/injection, vehicle: saline with Tween-80) was 140 % of control; the T/C under setting [5] was 130 % of control; the T/C under setting [6] was 142 % of control; the T/C under setting [11] was 140 % of control [7 of 10 alive]. Also, under setting [11], the survivor count is listed as 0 of 10.
In the case of `NCC1CCC(C(=O)O)CC1` (stereo unspecified), the survivor count under setting [3] is on record as 10 of 10.
For the molecule `Nc1nc(-c2cccc(S(=O)(=O)O)c2)c([N+](=O)[O-])c(=O)[nH]1`, the T/C (dose: 103.0 mg/kg/injection, vehicle: saline) is 131 % of control.
As to `O=C(/C=C(\Cl)C(=O)NO)NO`, the survivor count by setting is: under setting [8], 10 of 10; under setting [12], 5 of 10 and 9 of 10.
For the molecule `O=C(Nc1cccnc1)c1ccc([N+](=O)[O-])s1`, the T/C (dose: 3.13 mg/kg/injection, vehicle: saline) is 128 % of control. In addition, the survivor count is reported as 10 of 10 under setting [8], 10 of 10 under setting [10], 10 of 10 under setting [12] and 10 of 10 under setting [4].
As to `CCN(CC)CCCC(C)Nc1c2ccc(C)cc2nc2ccc(OC)cc12` (stereo unspecified), the T/C under setting [8] was 130 % of control. For the same molecule, under setting [10], the survivor count is 6 of 10.
Consider `Cc1c2cc[n+](CCO)cc2c(C)c2c1[nH]c1ccc(O)cc12`, for which the survivor count is 9 of 9 (dose: 1.25 mg/kg/injection, vehicle: saline); 8 of 8 (dose: 2.5 mg/kg/injection, vehicle: saline); 7 of 8 (dose: 5.0 mg/kg/injection, vehicle: saline); 3 of 8 (dose: 10.0 mg/kg/injection, vehicle: saline).
For `CCCCC(CC)(CC(=N)C(C)(C)C)c1ccccc1` (stereo unspecified), the survivor count runs as follows: (dose: 100.0 mg/kg/injection, vehicle: saline + Tween-80 + alcohol) 10 of 10; (dose: 200.0 mg/kg/injection, vehicle: saline + Tween-80 + alcohol) 10 of 10.
With `S=c1c2[nH]cnc2ncn1CCSC1=NC=NC2=NC=NC21` (stereo unspecified), the survivor count by setting is: under setting [10], 9 of 10; under setting [12], 9 of 10.
As to `CC(NC(=O)OCc1ccccc1)C(=O)NC(C(=O)O)C(C)O` (stereo unspecified), the survivor count under setting [13] was 10 of 10.
As to `COC1=CC(=O)C(OC)=C(OC)C1=O`, the survivor count under setting [6] was 4 of 10, the survivor count under setting [7] was 4 of 10 and the survivor count under setting [9] is recorded as 1 of 10.
Turning to `O=C(Cl)c1ccccc1S(=O)(=O)N(CCOc1ccccc1)c1ccccc1`, the survivor count under setting [13] is listed as 7 of 10.
In the case of `CCCCCCCC(=O)N/N=C(\CO)[C@]1(O)Cc2c(O)c3c(c(O)c2[C@@H](OC2CC(N)C(O)C(C)O2)C1)C(=O)c1c(OC)cccc1C3=O` (stereo partly specified), the survivor count by setting is: (dose: 24.0 mg/kg/injection, vehicle: water) 10 of 10; (dose: 48.0 mg/kg/injection, vehicle: saline) 10 of 10; (dose: 48.0 mg/kg/injection, vehicle: water) 10 of 10.
`COC1=C2C[C@@H](C)C[C@@H](OC)[C@@H](O)[C@H](C)/C=C(\C)[C@@H](OC(N)=O)[C@H](OC)/C=C\C=C(/C)C(=O)NC(=CC1=O)C2=O`: the survivor count is, setting by setting: (dose: 0.25 mg/kg/injection, vehicle: saline with Tween-80) 10 of 10; (dose: 4.0 mg/kg/injection, vehicle: saline with Tween-80) 10 of 10. The T/C runs as follows: (dose: 1.0 mg/kg/injection, vehicle: saline with Tween-80) 125 % of control; (dose: 2.0 mg/kg/injection, vehicle: saline with Tween-80) 129 % of control.
